Data: PubChem BioAssay AID2685 (National Center for Advancing Translational Sciences (NCATS), 2010)
This is one part of the list. Shown are side measurements of this screen, not its main read-out; they come without a call. Compounds called inactive in the main read-out are mostly missing here. Potencies come from curve fits of mixed quality, noted in brackets.

Experiment: qHTS Assay for Lipid Storage Modulators in Drosophila S3 Cells;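 as to cell number change: cells counted by Cell Tracker Red CMTPX staining in the red channel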
Settings: BODIPY lipid droplet fluorescence, 18-24 h; for cell number change: measured here: cell count max response, cells fed with added oleic acid
Summary of the method: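 Drosophila S3 cells loaded with oleic acid (400 uM, as added) and compounds at several concentrations; lipid droplets imaged by 488-nm laser-scanning cytometry, 500–530 nm intensity and object ratio to cell channel. Percent activity normalized to 20 uM Triacsin C.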

[1] = measured here: cell number channel AC50, cells fed with added oleic acid
[2] = measured here: lipid fluorescence (Fed channel) AC50, cells fed with added oleic acid

COc1ccc2c(c1)Sc1ccccc1N2
cell number change: -59.3%
AC50 [1]: 11.6 µM [falling, partial curve, poor fit]
AC50 [2]: 25.9 µM [falling, single point]

CC1=CCC(Cc2nc3ccccc3o2)C1(C)C (stereo unspecified)
cell number change: -48.6%
AC50 [1]: 32.6 µM [falling, partial curve, poor fit]

O=S(=O)(c1ccccc1)c1nc(-c2ccc(F)cc2)oc1NCC1CCCO1 (stereo unspecified)
cell number change: 2.9%
AC50 [2]: 29.1 µM [falling, single point]

CCOc1c2ccccc2nn1CCOC
cell number change: 21.8%
AC50 [2]: 0.517 µM [rising, full curve, poor fit]

Cn1c(CC(=O)Nc2ccccc2)n[nH]c1=S
cell number change: 36.9%
AC50 [1]: 6.51 µM [rising, full curve, poor fit]
AC50 [2]: 5.8 µM [rising, partial curve]

Cn1ccnc1SCC(=O)Nc1nc2c(F)c(F)c(F)cc2s1
cell number change: 7.04%

Cc1noc(C)c1C(=O)NCCCN1CCCC1=O
cell number change: -35.1%
AC50 [1]: 16.4 µM [falling, partial curve, poor fit]
AC50 [2]: 8.2 µM [falling, partial curve]

COC(=O)C(C#N)C(=C1C(=O)CC(C)(C)CC1=O)c1ccc(O)cc1 (stereo unspecified)
cell number change: -139%
AC50 [1]: 29.1 µM [falling, partial curve]
AC50 [2]: 0.651 µM [falling, single point]

Cc1ccc2nc(N(CCN3CCOCC3)C(=O)CCS(=O)(=O)c3ccccc3)sc2c1
cell number change: -62.1%
AC50 [1]: 16.4 µM [falling, single point]
AC50 [2]: 0.00461 µM [rising, full curve, poor fit]

CSCc1cccc(C(=O)OC(C)C(=O)Nc2c(C)n(C)n(-c3ccccc3)c2=O)c1 (stereo unspecified)
cell number change: 4%
AC50 [2]: 0.58 µM [rising, single point]

c1cncc(-c2nc(-c3ccco3)cs2)c1
cell number change: -11.7%
AC50 [2]: 0.731 µM [rising, single point]

COc1cc(C(=O)N2CCN(c3ncnc4sc(C)c(C)c34)CC2)cc(OC)c1OC
cell number change: -34.3%
AC50 [1]: 10.3 µM [falling, partial curve, poor fit]
AC50 [2]: 8.2 µM [falling, partial curve]

CCN(CC)c1nc(C)c(C(=S)Nc2cc([N+](=O)[O-])ccc2Cl)s1
cell number change: -28.3%
AC50 [2]: 1.64 µM [falling, partial curve, poor fit]

CCOc1ccccc1CNC(=O)c1ccccc1NC(=O)C1=CSCCO1
cell number change: -10%
AC50 [2]: 11.6 µM [falling, single point]

O=C(CCn1ccc2cc(S(=O)(=O)N3CCCC3)ccc21)NCc1ccccc1F
cell number change: -12.9%
AC50 [2]: 29.1 µM [rising, single point]

COC(=O)c1cccc(COC(=O)c2cccnc2SC)c1
cell number change: 55.2%
AC50 [1]: 29.1 µM [rising, single point]

S=c1[nH]nc(-c2cc(-c3ccccc3)n[nH]2)n1/N=C/C(Br)=C/c1ccccc1
cell number change: -68.5%
AC50 [1]: 18.4 µM [falling, single point]
AC50 [2]: 16.4 µM [falling, partial curve, poor fit]

C=CCn1cc(-c2ccc(Cl)cc2)cc(C#N)c1=O
cell number change: 104%
AC50 [1]: 7.31 µM [rising, partial curve]
AC50 [2]: 9.2 µM [rising, partial curve]

O=C1C2(c3ccccc3)CN(CCO)CC1(c1ccccc1)CN(CCO)C2
cell number change: -96.6%
AC50 [1]: 23.1 µM [falling, partial curve]
AC50 [2]: 1.46 µM [falling, partial curve]

COC(=O)CN1C(=S)N(c2ccc(F)cc2)C(=O)C1CC(=O)Nc1ccc(F)cc1 (stereo unspecified)
cell number change: -6.7%
AC50 [2]: 0.103 µM [falling, full curve, poor fit]

Cc1ccc(C)c(NC(=S)N2CCN(S(=O)(=O)c3ccccc3)CC2)c1
cell number change: -5.94%
AC50 [2]: 6.51 µM [falling, partial curve, poor fit]

Cc1cccc2cc(CN(CC3CCCO3)C(=O)NC3CCCCC3)c(=O)[nH]c12 (stereo unspecified)
cell number change: -10.8%
AC50 [2]: 6.51 µM [rising, single point]

Cc1ccc(-n2nnnc2SCC(=O)N2CCNC2=O)cc1C
cell number change: -0.519%
AC50 [2]: 0.731 µM [rising, single point]

CCOc1ccc(-c2cccc(NS(=O)(=O)c3cc([N+](=O)[O-])ccc3C)c2)nn1
cell number change: -7.91%
AC50 [2]: 0.731 µM [falling, single point]

COc1ccc(NC(=O)NNC(=O)C(C)Oc2ccc3ccccc3c2)cc1OC (stereo unspecified)
cell number change: 11.9%
AC50 [2]: 29.1 µM [rising, single point]

CCCSCCCNC(=O)Cn1c(=O)c2cccn2c2ccccc21
cell number change: -15%
AC50 [2]: 8.2 µM [falling, partial curve]

CC(=O)N1CCOc2ccc(S(=O)(=O)N3CCN(c4cccc(C(F)(F)F)c4)CC3)cc21
cell number change: -3.58%

Cn1cc(-c2nnnn2-c2ccc(Cl)cc2)c(C(F)(F)F)n1
cell number change: 84.1%
AC50 [1]: 18.4 µM [rising, single point]
AC50 [2]: 0.58 µM [falling, single point]

N#CC(Cc1ccccc1)(Cc1ccccc1)C(=O)NN
cell number change: -13.5%

S=C(NCCCn1ccnc1)Nc1ccc(Cl)cc1Cl
AC50 [2]: 1 µM [rising, partial curve, poor fit]

CCc1cccc(CC)c1NC(=S)NCc1ccc2c(c1)OCO2
cell number change: 16.1%
AC50 [2]: 29.1 µM [rising, single point]

C/C(N)=C(/C#N)C(=O)CSc1nnc(Nc2ccccc2C)s1
cell number change: -10.8%

Cc1cc(Cl)cc(Br)c1OCCCN1C(=O)NC(C)(C)C1=O
cell number change: 0.433%

CCOc1cccc2sc(N(CCN(C)C)C(=O)c3cc4ccccc4cc3OC)nc12
cell number change: -11.6%
AC50 [2]: 29.1 µM [falling, single point]

CCCN1C(=O)c2cc(C(=O)Nc3ccccc3C)ccc2C1Nc1ccccc1C (stereo unspecified)
cell number change: -1.68%

Cc1nnc(-c2cnn(C)c2N)n1Cc1ccc(Cl)cc1
AC50 [1]: 5.17 µM [rising, single point]
AC50 [2]: 6.51 µM [rising, partial curve]

CC(=O)N1CCN(S(=O)(=O)c2cccc(C(=O)OCC(=O)N3CC(=O)Nc4ccccc43)c2)CC1
AC50 [1]: 0.0651 µM [falling, full curve]
AC50 [2]: 0.0058 µM [falling, full curve, poor fit]

O=C(/C=C/c1ccccc1)N1CCN(c2c(Cl)cccc2[N+](=O)[O-])CC1
cell number change: 37%
AC50 [1]: 0.92 µM [rising, full curve]

COc1cccc(/C=N/NC(N)=S)c1OCc1cccc(Cl)c1
AC50 [2]: 9.2 µM [falling, partial curve]

CO/N=C(\Cn1ncc(NC2CCCCC2)c(Br)c1=O)c1ccc(Cl)cc1
cell number change: -5.46%
AC50 [2]: 23.1 µM [rising, single point]

Cn1nc(-c2ccc(C(=O)O)cc2)c2ccccc2c1=O
AC50 [2]: 6.51 µM [rising, single point]

CCCC(C(=O)Nc1ccc(S(=O)(=O)Nc2ncccn2)cc1)c1ccccc1 (stereo unspecified)
cell number change: -16.2%
AC50 [2]: 0.58 µM [falling, single point]

CC(=O)N1N=C(c2ccc(C)cc2)OC1c1ccc(C)cc1 (stereo unspecified)
cell number change: -32.2%
AC50 [1]: 23.1 µM [falling, partial curve, poor fit]
AC50 [2]: 14.6 µM [falling, partial curve, poor fit]

N#Cc1ccccc1COC(=O)c1cccnc1N
cell number change: -49.6%
AC50 [1]: 11.6 µM [falling, single point]
AC50 [2]: 20.6 µM [falling, single point]

Cc1ccc(-c2noc(CCCC(=O)Nc3cccnc3)n2)cc1
cell number change: -6.76%

CCCn1c(SCC(=O)Nc2cc(Cl)ccc2OC)nc(O)cc1=O
cell number change: 11.8%
AC50 [2]: 6.51 µM [rising, single point]

COc1ccc(CCNC(=O)c2cc3ccccn3n2)c(OC)c1OC
cell number change: 5.55%

O=C(c1nc2n(n1)C(c1ccc(Cl)cc1)C=C(c1ccccc1)N2)N1CCOCC1 (stereo unspecified)
AC50 [2]: 0.731 µM [falling, single point]

O=C(Nc1csc([N+](=O)[O-])c1)Nc1ccccc1Cl
cell number change: -15.3%

Cc1ccc(OCC(=O)Nc2ccc3c(c2)nc(CCN2CCCCC2)n3C)cc1
cell number change: -13.8%

Cc1cccc(OCCC(=O)Nc2ccc(F)c(F)c2)c1
cell number change: -33.9%
AC50 [1]: 2.31 µM [rising, partial curve, poor fit]

Cc1csc(NC(=O)CSc2nnc(-c3cc(C)on3)o2)n1
cell number change: 20.3%
AC50 [2]: 0.58 µM [rising, single point]

CCc1ccccc1NC(=O)C1CCN(S(=O)(=O)c2ccc3c(c2)N(C(C)=O)CCO3)CC1
cell number change: 0.763%
AC50 [2]: 18.4 µM [falling, partial curve]

COc1ccc(NC(=O)C(=O)NCCN2CCN(C(=O)C(c3ccccc3)c3ccccc3)CC2)cc1
AC50 [2]: 0.58 µM [rising, full curve]

COc1ccc(NC(=O)O/N=C/c2ccc(N(C)C)cc2)cc1
cell number change: 20.6%
AC50 [2]: 3.26 µM [rising, full curve, poor fit]

CN(CC(=O)Nc1cccc(F)c1)C(=O)c1cccnc1Sc1ccccc1
cell number change: 41.4%

O=C(Nc1nnc(-c2ccccc2F)s1)c1ccccc1F
cell number change: 46.8%
AC50 [1]: 2.91 µM [rising, full curve]

O=C(Nc1ccc(N2CCCCC2)cc1)C(Cl)c1ccccc1 (stereo unspecified)
cell number change: -26.1%
AC50 [1]: 0.058 µM [falling, full curve]

Cc1ccc(S(=O)(=O)N2CCOCC2)cc1C(=O)NCc1ccccc1CN1CCCC1
cell number change: 4.39%
AC50 [2]: 16.4 µM [falling, partial curve]

COc1ccc(C(=O)NNC(=O)OC(C)(C)C)cc1
cell number change: -11%
AC50 [2]: 6.51 µM [falling, single point]
